# Test results taken from patent US6423737B1, “Benzamidoxime prodrugs as antipneumocystic agents” (The University of North Carolina at Chapel Hill, priority 1995, dated 2002).
# At least one compound was matched to its structure with a doubt left.
# Tested on: Pneumocystis carinii
# Assay: Anti-P. carinii activity in immunosuppressed rat model (lung cyst counts)
# Type: in vivo, Sprague-Dawley rats
# Method: The activity of the compounds of Formula I against P. carinii was carried out according to an established method. See Tidwell, R. R., et al., J. Protozool. […] Agents Chemother. […] Agents Chemother. […] Briefly, male Sprague-Dawley rats (barrier raised, not certified virus-free) weighing 150-200 g each, were obtained (Hilltop Laboratories, Scottsdale, Pa.). Immediately upon arrival, the animals were caged individually and begun on a low protein (8%) diet and on drinking water containing tetracycline (0.5 mg/mL) and dexamethasone (1.0 μ/mL). This regimen was continued for eight weeks. At the beginning of the seventh week, animals were divided into groups of 8 or more, and the test compounds were administered for 14 days. Saline and pentamidine-treated groups were included as controls.
# Animals were sacrificed at the end of the eighth week by chloroform inhalation. The left lung was weighed, ground through a No. 60 wire mesh screen, and suspended 1:10 (wt/vol) in 10 mM β-mercaptoethanol-Hanks' balanced salts solution (HBSS) without cations. Slides were prepared by spotting 5 μL of lung homogenate diluted 1:10 in HBSS with β-mercaptoethanol and allowed to air dry. The slides were stained with cresyl violet, and the cysts were counted by a blinded protocol. The number of cysts per gram of original lung tissue was calculated, and the groups were reported as the percentages of saline-treated controls.
# The anti-P. carinii value for each compound is expressed as the percent of cysts in the treatment group as compared to the saline control group. Values are also compared to a positive control group consisting of animals treated intravenously with pentamidine.
compound,measurement,setting,value
"NC(=NO)c1ccc(-c2ccc(-c3ccc(C(N)=NO)cc3)o2)cc1 [Compound 10, 2,5-bis-[4-amidinophenyl]furanbis-amidoxime]","Cysts in Lung tissue, IV DOSING",0.3 μmol/kg/day,203.6 ∀ 56.4 percentage of the saline treated controls
same,"Cysts in Lung tissue, IV DOSING",2.7 μmol/kg/day,54.4 ∀ 27.4 percentage of the saline treated controls
same,"Cysts in Lung tissue, IV DOSING",5.5 μmol/kg/day,42.3 ∀ 34.4 percentage of the saline treated controls
same,"Cysts in Lung tissue, IV DOSING",11.0 μmol/kg/day,1.37 ∀ 0.61 percentage of the saline treated controls
same,"Cysts in Lung tissue, IV DOSING",22.0 μmol/kg/day,0.67 ∀ 0.46 percentage of the saline treated controls
same,"cysts in lung tissue, ORAL DOSING",5.5 μmol/kg/day,127.0 ∀ 48.4 percentage of the saline treated controls
same,"cysts in lung tissue, ORAL DOSING",11.0 μmol/kg/day,197.6 ∀ 64.4 percentage of the saline treated controls
same,"cysts in lung tissue, ORAL DOSING",33.0 μmol/kg/day,3.1 ∀ 1.31 percentage of the saline treated controls
